This passage reports binding signal results from paper PMC5996148.

Assay in all cases: protein microarray (ProtoArray v5.0), streptavidin-Alexa Fluor 647
Common to all, as to details: 3'-biotin; 20 mM Tris (pH 7.5), 5 mM MgCl2, 100 mM KCl, 0.1% Tween-20, A/T-rich and random oligonucleotide blockers; temperature not stated; high values mean tight binding

Test [1] relates to ENO2 (human).
Test [2] has as its system ENTPD1 (human).
For test [3], the system named is EP400NL (human).
Test [4] relates to EPHA3 (human).
The subject of test [5] is ERCC1 (human).
The subject of test [6] is ERCC6L (human).
For test [7], the system named is ERGIC1 (human).
In test [8] the test system is ETFB (human).
Test [9] relates to ETS1 (human).
Test [10] has as its system EXOSC7 (human).

This is one part of the list.

As to “GGGGACAGGGGTATGGGGAGGGG [G4-3 biotinylated (CtG)]”, the binding signal is -0.328 z-score in [1]; -0.31 z-score in test [2]; -0.341 z-score in [3]; -0.302 z-score in test [4]; -0.324 z-score in [5]; -0.328 z-score in test [6]. Further, the binding signal in [7] is -0.317 z-score; in test [8], -0.332 z-score; in test [9], -0.331 z-score; in [10], -0.335 z-score.
